Assay: general procedure: Fmoc solid-phase peptide synthesis; Rink amide resin (0.47 meq/g); Oxyma Pure and DIPCDI
Conditions: whole synthesis

Leu-Pro-c(SSA*-Ala-Leu-Asn-Asp-Glu)-Arg-NH2
final HPLC purity: 99.7%
